Data reported in PubChem BioAssay AID493014 (National Center for Advancing Translational Sciences (NCATS), 2011).
The other results are listed elsewhere or left out. These are further read-outs of the screen, such as a control signal, another cell line or another target. No call is given for them. Compounds called inactive in the main read-out are mostly missing here. The note in brackets gives the kind of curve behind each potency; many fits are weak.

Test: qHTS Assay to Find Inhibitors of Chronic Active B-Cell Receptor Signaling
Details: ABC-DLBCL IkBa-CBG/CBR reporter, luminescence ratio (green luciferase fused to IkBa over red control in TMD8 lymphoma cells), 4 h
Method in brief: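 TMD8 ABC-DLBCL cells carrying doxycycline-inducible green luciferase fused to IkappaBalpha plus unfused red luciferase were exposed to compounds (up to 46 uM) for 4 hrs at 37C. Activity came from the overlap-corrected green/red luminescence ratio.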

[1] = measured here: CBR red luminescence, cell number

Row | SMILES | AC50 [1] | AC50 (measured here: IkBa-CBG green luminescence)
1 | CCOc1ccccc1N=c1oc2cc(O)ccc2cc1C(=O)NCC1CCCO1 (stereo not drawn) | 0.58 µM [falling, full curve] | –
2 | O=S(=O)(c1ccccc1)N1CCN=C1SCc1c(F)cccc1Cl | 5.01 µM [rising, single point] | –
3 | O=C1C2C3C=CC(CNS(=O)(=O)c4ccccc4)(O3)C2C(=O)N1c1ccc(Cl)cc1 (stereo not drawn) | 18.4 µM [falling, single point] | –
4 | COc1ccc(CNn2c(-c3cccs3)nc3ccccc3c2=O)cc1OC | 14.1 µM [falling, single point] | –
5 | O=C(NCc1ccco1)c1ccc(COc2ccc(Cl)cc2)cc1 | 29.1 µM [rising, single point] | –
6 | O=C(N/N=C/c1ccc(O)c([N+](=O)[O-])c1)C(O)(c1ccccc1)c1ccccc1 | 10 µM [falling, partial curve] | –
7 | CCN1C(c2ccc(F)cc2)=CS/C1=C(\C#N)c1nnc2n1-c1ccccc1SC2 | 25.1 µM [falling, single point] | –
8 | CCOc1ccc(NS(=O)(=O)c2cc(NC(=O)CCC(=O)c3cccs3)ccc2Cl)cc1 | 35.5 µM [falling, single point] | –
9 | Cc1cc(C(F)(F)F)n2nc(C)c(-c3ccc(Cl)cc3)c2n1 | 1.64 µM [rising, partial curve, poor fit] | 29.1 µM [falling, partial curve, poor fit]
10 | C/C(=N\NC(=O)c1ccc(Cl)cc1)c1cccc(NC(=O)C(C)C)c1 | 2.51 µM [falling, partial curve, poor fit] | –
11 | Cn1ncc2c(Nc3cccc(Cl)c3)nc(Nc3cccc(Cl)c3)nc21 | 6.31 µM [falling, full curve] | –
12 | Cc1cccc(CC2S/C(=N/c3ccccn3)NC2=O)c1 (stereo not drawn) | 0.231 µM [rising, full curve, poor fit] | –
13 | Cc1nnc(SCC(=O)Nc2nc3c(s2)CC(C)CC3)s1 (stereo not drawn) | 23.1 µM [falling, partial curve, poor fit] | –
14 | c1ccc(-n2c(SCc3nc(-c4cccs4)no3)nnc2-c2ccco2)cc1 | 29.1 µM [falling, single point] | –
15 | CC[C@@]12C(=O)N(c3ccccc3)C(=O)N1[C@H](c1cccc(C)c1)[C@@H]1C(=O)N(Cc3ccccc3)C(=O)[C@@H]12 | 11.2 µM [falling, single point] | –
16 | CCCC(C)C(=O)Nc1nc(C)c(-c2csc(Nc3ccc(Cl)cc3)n2)s1 (stereo not drawn) | 3.16 µM [rising, full curve, poor fit] | –
17 | O=C(O)c1ccccc1C(=O)Nc1ccccc1 | 0.116 µM [rising, full curve, poor fit] | –

One compound at a time (already shown). Values in the order: AC50 [1]	AC50 (measured here: IkBa-CBG green luminescence)
O=C(N/N=C/c1ccc(O)c([N+](=O)[O-])c1)C(O)(c1ccccc1)c1ccccc1 is listed as 10 µM [falling, partial curve]	–
CCOc1ccc(NS(=O)(=O)c2cc(NC(=O)CCC(=O)c3cccs3)ccc2Cl)cc1 is listed as 35.5 µM [falling, single point]	–
